Data: PubChem BioAssay AID2685 (National Center for Advancing Translational Sciences (NCATS), 2010)
Some of the results follow. The main result of the screen is listed elsewhere. These columns were measured beside it and carry no call. The list favours compounds with an active or inconclusive main result. The note in brackets gives the kind of curve behind each potency; many fits are weak.

Experiment: qHTS Assay for Lipid Storage Modulators in Drosophila S3 Cells;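 for cell number change: cells counted by Cell Tracker Red CMTPX staining in the red channel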
Conditions: BODIPY lipid droplet fluorescence, 18-24 h; for cell number change: measured here: cell count max response, cells fed with added oleic acid
How it was run: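 Laser-scanning cytometry quantifies lipid droplet accumulation (500–530 nm total intensity; droplet/cell object ratio) in oleic acid-fed (400 uM added) Drosophila S3 cells treated with a concentration series. 20 uM Triacsin C defined 100% inhibition.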

[1] = measured here: lipid fluorescence (Fed channel) AC50, cells fed with added oleic acid
[2] = measured here: cell number channel AC50, cells fed with added oleic acid

Compound: Brc1ccc(/C=C/C=N/Nc2nc3ccccc3s2)cc1
- cell number change: -13.1%
- AC50 [1]: 29.1 µM [falling, single point]

Compound: COc1ccc(/C=N/NC(=O)c2ccc(Br)cc2)c(OC)c1
- cell number change: 16.1%
- AC50 [2]: 3.66 µM [rising, single point]
- AC50 [1]: 3.26 µM [rising, single point]

Compound: N#Cc1ccccc1Cn1cc(/C=C/[N+](=O)[O-])c2ccccc21
- cell number change: -52.3%
- AC50 [2]: 20.6 µM [falling, single point]
- AC50 [1]: 29.1 µM [falling, single point]

Compound: COC(=O)c1ccc(C(NC(=O)OCc2ccccc2)/C(F)=C/[C@@H](C)C(=O)NCc2ccc(OC)c(OC)c2)cc1 (stereo not given in full)
- cell number change: 16.5%
- AC50 [1]: 2.59 µM [rising, full curve]

Compound: Cc1ccc(Cn2ncc3c(N4CCOCC4)ncnc32)cc1
- cell number change: -1.65%

Compound: O=[N+]([O-])c1ccccc1Nc1ccccc1
- cell number change: -32.7%

Compound: CCOc1ccc2[nH]c(=O)c(CN(Cc3nnnn3Cc3ccco3)C3CCCCC3)cc2c1
- cell number change: -23.5%

Compound: CCCCN(C)CCCNC(=O)c1cn(CC)c2ccc(S(=O)(=O)N3CCOCC3)cc2c1=O
- cell number change: 23.3%
- AC50 [1]: 0.58 µM [falling, single point]

Compound: COCCn1cc(C(=S)N2CCOCC2)c2ccccc21
- cell number change: 6.45%
- AC50 [1]: 3.26 µM [rising, partial curve]

Compound: O=[N+]([O-])c1c(Nc2ccc(O)cc2)cc(Cl)c2nonc12
- cell number change: -67.1%
- AC50 [2]: 3.66 µM [falling, full curve]
- AC50 [1]: 2.59 µM [falling, full curve]

Compound: CCCC[n+]1ccn(C2=C([O-])c3ccccc3C(=O)/C2=N\S(=O)(=O)c2ccc(Cl)cc2)c1
- cell number change: -19%
- AC50 [1]: 29.1 µM [falling, single point]

Compound: Cc1nn(CC(=O)NCCc2ccccc2)c(=O)c2ccccc12
- cell number change: -1.29%
- AC50 [1]: 0.184 µM [rising, full curve, poor fit]

Compound: O=C(CSc1nnc2ccccn12)NNC(=O)c1ccccc1
- cell number change: -107%
- AC50 [2]: 20.6 µM [falling, partial curve]
- AC50 [1]: 1.84 µM [falling, full curve]

Compound: Cc1ccc(S(=O)(=O)N2CCN(C(=O)C(C)Cn3nc(C)c(C)c3C)CC2)cc1 (stereo not given)
- cell number change: -15.1%
- AC50 [1]: 29.1 µM [rising, single point]

Compound: O=S(Cc1ccc(Br)cc1)Cc1nnc(SCc2ccc(Br)cc2)n1-c1ccccc1 (stereo not given)
- cell number change: 9.85%
- AC50 [1]: 6.51 µM [rising, partial curve, poor fit]

Compound: S=c1[nH]nc(C2CCCCC2)n1/N=C/c1c(Cl)cccc1Cl
- cell number change: -52.5%
- AC50 [2]: 20.6 µM [falling, single point]
- AC50 [1]: 18.4 µM [falling, single point]

Compound: CC1=CC(=O)C=C(C)C1=NOC(=O)c1cccc([N+](=O)[O-])c1
- cell number change: 2.35%
- AC50 [1]: 0.00461 µM [rising, full curve, poor fit]

Compound: O=C(NCCc1c[nH]c2ccc(Cl)cc12)c1cccnc1
- AC50 [2]: 1.46 µM [rising, partial curve]
- AC50 [1]: 2.31 µM [rising, partial curve, poor fit]

Compound: CCOCCCNc1ccc(-c2ccccc2)nn1
- cell number change: 20.3%
- AC50 [1]: 2.06 µM [rising, partial curve]

Compound: COc1cc(OC)c(S(=O)(=O)N2CCN(C(=O)c3ccccc3F)CC2)cc1NC(C)=O
- cell number change: 21.6%
- AC50 [1]: 7.31 µM [rising, partial curve]

Compound: COc1ccc(CCNC(=O)COC(=O)/C=C/c2ccc(OCC#N)c(OC)c2)cc1OC
- cell number change: -79.2%
- AC50 [2]: 10.3 µM [falling, partial curve]
- AC50 [1]: 2.31 µM [falling, full curve]

Compound: COC(=O)CCC(=O)NC1CC(C)(C)Cc2c1cnn2-c1ccc(F)cc1 (stereo not given)
- cell number change: -31.8%
- AC50 [2]: 5.8 µM [falling, partial curve]

Compound: CC(C)(C)c1cc(Cl)ccc1OCCOCCN1CCCC1
- cell number change: -22.6%

Compound: COc1ccc(C2=NS(=O)(=O)N(C)C(C(=O)Nc3ccc(OC)c(OC)c3)=C2)cc1
- cell number change: -1.44%
- AC50 [1]: 0.082 µM [rising, full curve, poor fit]

Compound: CCOC(=O)c1sc2nc(SC)nc(-c3ccccc3)c2c1N
- cell number change: -11%
- AC50 [1]: 13 µM [rising, partial curve]

Compound: COC(=O)CN1C(=O)[C@H]2[C@@H](c3ccc(C)o3)N3C(=O)CN(CCO)C(=O)[C@@]3(Cc3ccccc3)[C@H]2C1=O
- cell number change: -12.6%

Compound: Cc1nc2ccccc2nc1OCc1cccc([N+](=O)[O-])c1
- cell number change: 7.38%
- AC50 [2]: 0.103 µM [falling, full curve, poor fit]
- AC50 [1]: 0.103 µM [falling, full curve, poor fit]

Compound: CCOC(=O)c1c(NC(=O)CSc2ncccn2)sc2c1CC(C)(C)NC2(C)C
- cell number change: 28.1%
- AC50 [1]: 2.91 µM [rising, full curve]

Compound: CC(C)Oc1ccc(C(=O)NCCCNC(=O)c2cccnc2)cc1
- AC50 [1]: 14.6 µM [falling, partial curve]

Compound: CCOC(=O)c1ccc(NC(=O)CSc2nnc(COc3ccccc3OC)n2C)cc1
- AC50 [2]: 0.13 µM [falling, full curve, poor fit]

Compound: O=C1NC(=O)c2c(NC(=O)C3CCCO3)cccc21 (stereo not given)
- cell number change: -22.9%
- AC50 [2]: 0.00461 µM [falling, full curve, poor fit]
- AC50 [1]: 0.651 µM [falling, full curve, poor fit]

Compound: Cc1cc(C)n(-c2nncc(-c3ccccc3)n2)n1
- cell number change: -26.6%
- AC50 [2]: 1.03 µM [falling, single point]

Compound: Cc1ccc(CC(=O)O/N=C(\N)c2ccncc2)cc1
- cell number change: -11.8%
- AC50 [1]: 0.731 µM [rising, partial curve]

Compound: CC1CCCCN1c1nnc(NC(=O)Cn2c(=O)oc3ccccc32)s1 (stereo not given)
- cell number change: 9.94%
- AC50 [1]: 6.51 µM [rising, single point]

Compound: CC(C)Oc1nc(-c2ccccc2O)nc2ccccc12
- cell number change: 1.76%
- AC50 [1]: 1.64 µM [rising, partial curve]

Compound: Cc1ccc(S(=O)(=O)N(C)C)cc1NC(=O)CN1C(=O)NC2(CCCCCCC2)C1=O
- cell number change: 23.7%
- AC50 [1]: 8.2 µM [rising, partial curve]

Compound: COC(=O)C(Cc1ccccc1)NC(=O)c1cccc(S(=O)(=O)N(C)C)c1 (stereo not given)
- AC50 [2]: 1.84 µM [rising, partial curve, poor fit]
- AC50 [1]: 1.03 µM [rising, partial curve, poor fit]
